Data as given in patent US20250180582A1.
These are yes or no findings as the source states them, for the method shown. Some results given as binding are weak or reduced against the parent protein; the word gives no strength. Each block holds one binder with its values, some of them ahead of it.

Experiments:
[1] = biological target: T1, pCold-TF-GPR37-1-265 extracellular segment protein (human) (UniProt O15354); experiment: summary of ELISA/EIA results
T1 sequence: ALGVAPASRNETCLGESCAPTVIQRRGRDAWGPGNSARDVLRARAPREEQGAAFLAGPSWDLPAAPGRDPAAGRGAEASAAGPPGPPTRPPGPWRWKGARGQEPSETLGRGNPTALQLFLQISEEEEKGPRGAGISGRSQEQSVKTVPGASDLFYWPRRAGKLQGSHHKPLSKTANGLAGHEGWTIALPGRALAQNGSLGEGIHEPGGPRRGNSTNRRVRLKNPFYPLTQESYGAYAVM

[2] = biological target: T1, pCold-TF-GPR37-1-265 extracellular segment protein (human); experiment: indirect ELISA, cell supernatant
[3] = biological target: T1, pCold-TF-GPR37-1-265 extracellular segment protein (human); experiment: sandwich EIA; coat 6D2, label 5A2-HRP
[4] = biological target: T2, pET-32a-GPR37-1-613 full-length antigen (human) (UniProt O15354); experiment: sandwich EIA; coat 6D2, label 5A2-HRP
T2 sequence: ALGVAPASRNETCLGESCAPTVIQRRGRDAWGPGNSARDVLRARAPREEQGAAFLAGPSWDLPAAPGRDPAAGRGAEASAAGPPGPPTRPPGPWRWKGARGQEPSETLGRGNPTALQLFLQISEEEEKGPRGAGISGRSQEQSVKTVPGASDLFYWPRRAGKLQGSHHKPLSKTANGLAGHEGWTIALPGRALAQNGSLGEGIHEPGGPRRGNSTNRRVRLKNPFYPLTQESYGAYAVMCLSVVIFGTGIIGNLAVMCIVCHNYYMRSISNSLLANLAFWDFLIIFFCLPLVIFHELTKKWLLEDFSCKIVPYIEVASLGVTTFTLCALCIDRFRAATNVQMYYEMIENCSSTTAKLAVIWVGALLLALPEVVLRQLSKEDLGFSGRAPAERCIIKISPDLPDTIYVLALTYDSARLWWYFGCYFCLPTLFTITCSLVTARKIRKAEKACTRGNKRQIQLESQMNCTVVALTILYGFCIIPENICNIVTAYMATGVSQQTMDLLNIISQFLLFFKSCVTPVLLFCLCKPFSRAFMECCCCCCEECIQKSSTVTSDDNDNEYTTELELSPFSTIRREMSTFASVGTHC

binding [1]: binds
binding [2]: binds
binding [3]: binds
binding [4]: binds
B1: monoclonal antibody 6D2 (antibody, IgG2a, V domains shown)
VH: EVMLVESGGGLVKPGGSLKLSCAASGFIFSSQAMSWVRQIPEKRLEWVATISSGGSYTYYPDSVKGRFTISRDNAKNTLYLQMSSLTSEDTAMYYCARQRDFGRYYGYDPFFDFWGQGTTLTF
VL: EIVLTQSPTTMAASPGEKITITCSASSSISSNYLHWYQQKPGFSPKLLIYRTSNLPSGVPARFSGSGSGTSYSLTIGTMEAEDVATYYCQQGSSVPRITFGAGTKLE

binding [1]: binds
binding [2]: binds
B2: monoclonal antibody 5A2 (antibody, IgG2a, V domains shown)
VH: EVKLVESGGGLVQPGGSLRLSCATSGFIFSDYYMSWVRQPPGKALEWLGYIRNKAKRYTTEYNASVKGRFTISRDNSQNILYLQMNTLRAEDSATYYCARDTSDYDRFAYWGQGTLVTVSA
VL: DIVMTQTPLSLPVSLGDHASLSCKSSQSLVHRNGNTYLHWFLQKPGQSPKLLIYKVSNRFSGVPDRFSGSGSGTDFTLKISRVEAADLGVYFCSQSTLLPYTFGGGTKLEIK
